The other results are listed elsewhere or left out.
Biological target: OsWRKY34 (Oryza sativa, UniProt Q0JBA9 1-250)
Test: protein-binding microarray (RPBM); PBS, 2% BSA, 51.3 ng/ul salmon testes DNA, 50 uM zinc acetate, 200 nM TF, 25 C, 1 h; high values mean tight binding
Details: protein: recombinant; tags: N-terminal polyhistidine and DsRed monomer fusion (pET32a); label: CyDye5-dUTP incorporated in the synthesized complementary strand; 3' TTTTT single-stranded linker to array surface; dsDNA, one strand shown
Procedure, shortened: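 Ni–NTA purification followed expression in E. coli BL21-CodonPlus of transcription factors fused N-terminally to a polyhistidine tag and DsRed. At 200 nM in PBS with 2% BSA, salmon testes DNA and 50 µM zinc acetate, the protein was incubated for 1 h at 25 °C with a custom Agilent array that had been primer-extended with Cy5-dUTP and blocked with 2% BSA. After washing, the array was read on an Axon 4000B scanner. The binding signal is per-feature fluorescence intensity in arbitrary units.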

Chains of the proteins cited; added tags and fusions are not shown.
UniProt Q0JBA9, entry or part of it: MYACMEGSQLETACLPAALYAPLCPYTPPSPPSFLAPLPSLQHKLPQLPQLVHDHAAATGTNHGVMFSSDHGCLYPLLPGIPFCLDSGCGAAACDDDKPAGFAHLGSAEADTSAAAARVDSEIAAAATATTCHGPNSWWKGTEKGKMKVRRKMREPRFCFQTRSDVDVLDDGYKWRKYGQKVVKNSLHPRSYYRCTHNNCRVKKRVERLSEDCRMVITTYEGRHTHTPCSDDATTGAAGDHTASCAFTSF

Sequence | binding signal
TCGGCTGTGCCTGTTCGCGACCGTTCGATTTCCTCCTGATCGGAGTCACCTAGTGCAG | 9060 fluorescence intensity (a.u.)
CCCCATCCTTCACGTGCATCTGCATCTTCATCTTCTCTGCCGGAGTCACCTAGTGCAG | 8080 fluorescence intensity (a.u.)
AACGCCGCCACCTACCAAACGCATGAATCATACGAAATTTCGGAGTCACCTAGTGCAG | 8160 fluorescence intensity (a.u.)
AATCAAAATCCCTCCTTTCCTTGGCTTGCATCCTTGTCACCGGAGTCACCTAGTGCAG | 8560 fluorescence intensity (a.u.)
CCTTCCGTGTACACCACCATCACACCCTCCCGTCCGTCCGCGGAGTCACCTAGTGCAG | 8490 fluorescence intensity (a.u.)
CTTTTCAGTGTGACCGTGTCCACTTCACTTCACTTCGCCGCGGAGTCACCTAGTGCAG | 9010 fluorescence intensity (a.u.)
TCTTCTCAATTGCCCTACATTACAAAGACGTACAGTGTCCCGGAGTCACCTAGTGCAG | 8850 fluorescence intensity (a.u.)
CGCATGCAGCTTCACGTTTCTGATCTCTTCTTTTTGCTCGCGGAGTCACCTAGTGCAG | 11900 fluorescence intensity (a.u.)
ACAGTTCGTTACGGTCCTAACCGTATGTTTTTTATACCTCCGGAGTCACCTAGTGCAG | 9500 fluorescence intensity (a.u.)
TGTACATGGATGTAGCTTCTTCTTCTTCTTCTTCTGTTCACGGAGTCACCTAGTGCAG | 10900 fluorescence intensity (a.u.)
TTTTCACCATGTGTCATTGAAGCAATTATCTCGTTCATCACGGAGTCACCTAGTGCAG | 8830 fluorescence intensity (a.u.)
AGCTATCTTTTTGTGTTTCTTTTATTTTCCAGTTCTTGTACGGAGTCACCTAGTGCAG | 14000 fluorescence intensity (a.u.)
TTGATTTCGTTGGGGTTTGCGTTGCGTGCGGAGGACGGGGCGGAGTCACCTAGTGCAG | 15200 fluorescence intensity (a.u.)
GCTCCGCTGCTATAAGAAACCCACTGTTTTCCACTACTTACGGAGTCACCTAGTGCAG | 10100 fluorescence intensity (a.u.)
TTAAAGTTGGACAAGGAAAACCAGTCTTTGACTTTTTTTTCGGAGTCACCTAGTGCAG | 8660 fluorescence intensity (a.u.)
AATTCGTTCTTGTAGTCTATTTTGATCGGTCGGTTGTTGACGGAGTCACCTAGTGCAG | 13300 fluorescence intensity (a.u.)
GTCTAACAGGGCCGCTTCCCGTGGTCGATCTTACCAGGCCCGGAGTCACCTAGTGCAG | 8480 fluorescence intensity (a.u.)
ATTGGGGCGGCGGTGGCGGGCTAGGGTTTCGTAGATTCGACGGAGTCACCTAGTGCAG | 9960 fluorescence intensity (a.u.)
ATCGGGGAAGGGTCGTTCGGGGTGGTGTACTCCGGCGCGGCGGAGTCACCTAGTGCAG | 16000 fluorescence intensity (a.u.)
GATTTTTTCCCTGCTCTTTGATCTCCTCCTCCTCTCTCTCCGGAGTCACCTAGTGCAG | 8120 fluorescence intensity (a.u.)
TCTCGCGTTTCTTGCTGGCTGACGATCCTTCCACATACAGCGGAGTCACCTAGTGCAG | 9520 fluorescence intensity (a.u.)

Sequence | binding signal
CGGCTCTTCGGCGCGTGTCACGTAAGAGAGTCGGCCAACCCGGAGTCACCTAGTGCAG | 8540 fluorescence intensity (a.u.)
GCAACTCCTCACCTCTGCATTGTCTCCGCGTAGCTGAGCACGGAGTCACCTAGTGCAG | 8220 fluorescence intensity (a.u.)
TTCGCCACATTCCTTTTTTTTCAATCGGACAGATTCTTTTCGGAGTCACCTAGTGCAG | 8790 fluorescence intensity (a.u.)
ACTCGTTCCCGCCCGTAATGTCAACTTGGATTAATATATACGGAGTCACCTAGTGCAG | 9300 fluorescence intensity (a.u.)
CTCCTACCTCTCATTTGTTTGGAGTAACTTTTGTTTCGCACGGAGTCACCTAGTGCAG | 8240 fluorescence intensity (a.u.)
GCATAATTAAGAACATATACTTTCCCAGCATGTTCTGTGACGGAGTCACCTAGTGCAG | 10300 fluorescence intensity (a.u.)
CCGACGCCACCGCCCACGTGTCCTCTCCTCCCACCCGCCACGGAGTCACCTAGTGCAG | 8880 fluorescence intensity (a.u.)
TCTACCCGCCTTCCTTTTAGTCCCCGCGTCTCCACAAAATCGGAGTCACCTAGTGCAG | 10100 fluorescence intensity (a.u.)
CAACGTACATGCTACTAAATTTTGATCATTACTGTGCAGTCGGAGTCACCTAGTGCAG | 8120 fluorescence intensity (a.u.)
CCTCATCCTGGCCGTCCATCCGCTCCAGTTCCGCCTCTTCCGGAGTCACCTAGTGCAG | 13300 fluorescence intensity (a.u.)
ACTTGAATCGAGTTGAAGGTATTCATCTCTCTCTCCTACTCGGAGTCACCTAGTGCAG | 8080 fluorescence intensity (a.u.)
GACCAATCAACGCAGCTCTCGTCTCCTCTGTTTATATAAACGGAGTCACCTAGTGCAG | 9900 fluorescence intensity (a.u.)
CTTTCAACTTTTACGTCACATCGTTTCAATTTCAATTAAACGGAGTCACCTAGTGCAG | 8270 fluorescence intensity (a.u.)
AACTGCTGATTGTGATACACATGACCTGAACTCATTTTCTCGGAGTCACCTAGTGCAG | 9610 fluorescence intensity (a.u.)
TGTTAAATACTCCATTGTTGTTCTGATGGTATTTGCAGCCCGGAGTCACCTAGTGCAG | 9210 fluorescence intensity (a.u.)
AGGTTCGCCCATGTCAAGCTTATTTTTTCACCGGACACACCGGAGTCACCTAGTGCAG | 8560 fluorescence intensity (a.u.)
TTTTTTCTGCATGCTTTTCGAATTATGAATGACTACATTTCGGAGTCACCTAGTGCAG | 12000 fluorescence intensity (a.u.)
AATACCAAGTTTATTTCTCACCTGCATTTTAGATTCTCATCGGAGTCACCTAGTGCAG | 9050 fluorescence intensity (a.u.)
AATATGCTAACTCATTTTCCGTAAGTATGTACTATATCCACGGAGTCACCTAGTGCAG | 8560 fluorescence intensity (a.u.)
TCGCATCTTTCCATAGGTCGACAGCAAATCTACCTGCTGTCGGAGTCACCTAGTGCAG | 8820 fluorescence intensity (a.u.)
TAGCTAACATTGGTCCCGGTTTGTATTGCTAGCTTGTTCACGGAGTCACCTAGTGCAG | 8050 fluorescence intensity (a.u.)

Sequence | binding signal
TTTTACTGGAGGAATTCTATCCTTACTCATTTTTTTATATCGGAGTCACCTAGTGCAG | 9400 fluorescence intensity (a.u.)
TATTCTATTCTGTCAGTTGACCTTATCCTGCAGACCAGCGCGGAGTCACCTAGTGCAG | 8040 fluorescence intensity (a.u.)
CCACTACTGGAGTACTAGTCCACTTGACTACTTGTCCATACGGAGTCACCTAGTGCAG | 8240 fluorescence intensity (a.u.)
TCATCGCCCCTTCTCTCTACCCATCCCTCTTGCCAATTTCCGGAGTCACCTAGTGCAG | 9110 fluorescence intensity (a.u.)
TTGACGTTTATGCCAGGTGAAAAAGAAACGCGTTGACCCTCGGAGTCACCTAGTGCAG | 8890 fluorescence intensity (a.u.)
GCCACATATTTCGTCCGTTTGAGTTTATTTTTTACATGGTCGGAGTCACCTAGTGCAG | 9780 fluorescence intensity (a.u.)
ACGTGCCTCTTGCTTAATTTACTCTATTTTAGATCAAGTTCGGAGTCACCTAGTGCAG | 9490 fluorescence intensity (a.u.)
TTTCCATGTTTGGCATCATCCATTGTGGGATTGTATTTTACGGAGTCACCTAGTGCAG | 9440 fluorescence intensity (a.u.)
GCAACTGACACATGGGTCCTATTGATTTTATTATTTTTTACGGAGTCACCTAGTGCAG | 9160 fluorescence intensity (a.u.)
CCTCTCTCTCTCTCTCTCTCTCTCTCTCTCTCTCTCTCTCCGGAGTCACCTAGTGCAG | 9700 ± 931 fluorescence intensity (a.u.)
ATTGAGGGAGCAAACCTTTTATTTTTTGTGCGCATATTTTCGGAGTCACCTAGTGCAG | 8100 fluorescence intensity (a.u.)
ATAATGTTAACAACCATTCTTTCAAGAACATTTTTCATCTCGGAGTCACCTAGTGCAG | 8810 fluorescence intensity (a.u.)
CGGTCTTTGCCAAATTCCCACTCCGCTTGGCTTTCTGGCCCGGAGTCACCTAGTGCAG | 8250 fluorescence intensity (a.u.)
AGGTGAATTTTCCATAGCAATTGCATTGAACTCATCATCACGGAGTCACCTAGTGCAG | 8030 fluorescence intensity (a.u.)
AGTAGCTCATTGCCTGCCAATCTTCTCTTTCCCTTCTGCTCGGAGTCACCTAGTGCAG | 8600 fluorescence intensity (a.u.)
GCCTCGACCAGCAACGCTGCCGCCATTTGCACACGCTAGCCGGAGTCACCTAGTGCAG | 8490 fluorescence intensity (a.u.)
GATCCACTCATCTCTCCTGGCTAAGAATCAATCTCTTCTTCGGAGTCACCTAGTGCAG | 8160 fluorescence intensity (a.u.)
ATTGCCCCTAGTTTGTATGCACCAGTTCACCAACATTTTTCGGAGTCACCTAGTGCAG | 8860 fluorescence intensity (a.u.)
GATGGACGGCGACGGAGGCGGGGATGGAGGGGAATGGCGTCGGAGTCACCTAGTGCAG | 10700 fluorescence intensity (a.u.)
TGGTTGTGTCTTGTTCGGTCTTGCTGTTACTCTTTTTCACCGGAGTCACCTAGTGCAG | 15600 fluorescence intensity (a.u.)
ATTTCTTATGCATTGTGTGTTATGTGTTGCATACAAAATTCGGAGTCACCTAGTGCAG | 8790 fluorescence intensity (a.u.)

Sequence | binding signal
CCCACCGGATCCGCCGCTTCCTCCGCCGCGGTGGCGCTCGCGGAGTCACCTAGTGCAG | 8550 fluorescence intensity (a.u.)
TTGAATGAATATTTAATTATATGCTGTCATTTCTCATTTACGGAGTCACCTAGTGCAG | 8330 fluorescence intensity (a.u.)
AATGTTGGAGTATTATTCTGTGAGGGGAGGCGGGCAATCACGGAGTCACCTAGTGCAG | 13200 fluorescence intensity (a.u.)
GTTTGCTGCACCTCATGGCCGCCATGCATATGCAGTTCGTCGGAGTCACCTAGTGCAG | 8990 fluorescence intensity (a.u.)
GGTAAATTATCCATATACTAACTTTCATTCGTTTGCAAGCCGGAGTCACCTAGTGCAG | 9380 fluorescence intensity (a.u.)
AGCGTCGCTGCCATCATCGCCGTCGCGTCGCTCGTCGCCGCGGAGTCACCTAGTGCAG | 8220 fluorescence intensity (a.u.)
TTCTTTTTTACTTTCCTGCCACTTTTGCTTAATCTATTGCCGGAGTCACCTAGTGCAG | 9360 fluorescence intensity (a.u.)
CCTGTCATGGAGGATGTTTCCTGAAGTTTCAGAGCTGTATCGGAGTCACCTAGTGCAG | 8310 fluorescence intensity (a.u.)
TGTACTTCAAAAATTTACTTTACCGTGTGTTTTATTTTTTCGGAGTCACCTAGTGCAG | 9650 fluorescence intensity (a.u.)
TTATTGTTAGTTTGGCGCCCTTTGCCAGGTCCAAATTAAGCGGAGTCACCTAGTGCAG | 9410 fluorescence intensity (a.u.)
CATCAGCTTGACCGCCTCACCTCACCACCCCAAGCTAGACCGGAGTCACCTAGTGCAG | 10700 fluorescence intensity (a.u.)
ATCATTATGATCTACACTTTTCGTTACATTTTCTTCTATTCGGAGTCACCTAGTGCAG | 11600 fluorescence intensity (a.u.)
AGGTGGTGTGATGTGAAAGTAAATTTGTCATCCCCGGTGCCGGAGTCACCTAGTGCAG | 8080 fluorescence intensity (a.u.)
ATGTCATTGGGTTGGGCCTTATTTTCAAAAATACCCAAAACGGAGTCACCTAGTGCAG | 13700 fluorescence intensity (a.u.)
CAGTAAATTTAATCGTCACCGTACAATTATCGTATTTCGCCGGAGTCACCTAGTGCAG | 8050 fluorescence intensity (a.u.)
TATTGTTCCATGTCGGCACCACATCACCCAAAAACGTCTTCGGAGTCACCTAGTGCAG | 9270 fluorescence intensity (a.u.)
TCAGTAGCATTTCCGGGTCCCATCTATATGGACTAATTTTCGGAGTCACCTAGTGCAG | 9100 fluorescence intensity (a.u.)
CTATACACACCCATCTCACCATAACACACATACATAGATACGGAGTCACCTAGTGCAG | 9790 fluorescence intensity (a.u.)
ACTATTTGTTTATTGCAAAATACGGGCTTTTTCAAATTAGCGGAGTCACCTAGTGCAG | 8170 fluorescence intensity (a.u.)
AGAAAAAAACGTAGAGATCCACGCCGCATTCTCCATTTCTCGGAGTCACCTAGTGCAG | 9510 fluorescence intensity (a.u.)
TCTGAACATCGATCGAGTTGACCACTGTCGTTTTAGTTTCCGGAGTCACCTAGTGCAG | 13900 fluorescence intensity (a.u.)

Some values from the entries so far.
Value of ACTTGAATCGAGTTGAAGGTATTCATCTCTCTCTCCTACTCGGAGTCACCTAGTGCAG under binding signal: 8080 fluorescence intensity (a.u.)
Value of AGCTATCTTTTTGTGTTTCTTTTATTTTCCAGTTCTTGTACGGAGTCACCTAGTGCAG under binding signal: 14000 fluorescence intensity (a.u.)
Value of AATGTTGGAGTATTATTCTGTGAGGGGAGGCGGGCAATCACGGAGTCACCTAGTGCAG under binding signal: 13200 fluorescence intensity (a.u.)

From paper PMC7819943, “Rice protein-binding microarrays: a tool to detect cis-acting elements near promoter regions in rice”
